Measured data: PubChem BioAssay AID1259280 (Sanger Institute, 2017)

- Test: 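Kinome siRNA screen for partners that synergise with BYL719, cetuximab or trametinib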 (primary screen)
- System: human SNU407 colorectal cancer cells
- Knock-down reagent: siRNA pool against human genes
- Conditions: anchor drugs BYL719 at 1 µM, cetuximab at 5 µg/ml or trametinib at 10 nM, or DMSO vehicle alone; exposure time not given
- Read-out: 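Viability relative to non-targeting control siRNA, expressed as robust z-score, plus a synergy score for each of the three anchor drugs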
- Reading the numbers: viability z-score, no drug and viability vs control, no drug: higher = more cells survive the knock-down; synergy with trametinib: higher = stronger synergy of knock-down with drug
- Active means: 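Essential calls require a no-drug robust viability z-score under -3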
- Meaning of the calls: active = essential (knock-down alone kills cells); inactive = no change without drug
The whole screen tested 794 reagents; this is an unselected part. 12 of all reagents (1.5%) count as active. 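Calls cover knock-down without drug only; synergy scores stand apart, values above 0.15 being treated as synergy.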 Unmarked entries are inactive. No viability above 1 is reported: the scale is capped. Not all columns of the deposit are shown. The record does not give: the amount of reagent, the time to read-out.

| Target gene | PubChem SID | viability z-score, no drug | viability vs control, no drug (fraction of control) | synergy with trametinib |
| --- | --- | --- | --- | --- |
| PLK3 (polo like kinase 3) | SID56478615 | 0.0419 | 0.934 | 0.0133 |
| STK32A (serine/threonine kinase 32A) | SID152151517 | 0.901 | 1 | -0.169 |
| DDR1 (discoidin domain receptor tyrosine kinase 1) | SID152155868 | -0.462 | 0.896 | -0.0172 |
| STYK1 (STY kinase 1) | SID56478493 | -0.166 | 0.919 | 0.0571 |
| MAPK9 (mitogen-activated protein kinase 9) | SID56478662 | 0.901 | 1 | -0.0699 |
| TWF1 (twinfilin actin binding protein 1) | SID56478546 | 0.901 | 1 | -0.00597 |
| KCNH8 (potassium voltage-gated channel subfamily H member 8) | SID134311656 | -0.736 | 0.875 | 0.0734 |
| DAPK3 (death associated protein kinase 3) | SID56478935 | -1.31 | 0.831 | -0.142 |
| IPMK (inositol polyphosphate multikinase) | SID152147042 | 0.795 | 0.992 | -0.0734 |
| CKS1B (CDC28 protein kinase regulatory subunit 1B) | SID56478807 | 0.046 | 0.935 | -0.0213 |
| BUB1B (BUB1 mitotic checkpoint serine/threonine kinase B) | SID152154799 | -0.462 | 0.896 | -0.0392 |
| PRKCG (protein kinase C gamma) | SID56478828 | -0.2 | 0.916 | 0.0331 |
| PRKAG3 (protein kinase AMP-activated non-catalytic subunit gamma 3) | SID56479232 | -2.29 | 0.756 | -0.0416 |
| MST1R (macrophage stimulating 1 receptor) | SID152152898 | 0.388 | 0.961 | 0.0145 |
| CTCF (CCCTC-binding factor) | SID135623925 | -3.25 (active) | 0.683 | -0.121 |
| TNK2 (tyrosine kinase non receptor 2) | SID56478482 | 0.901 | 1 | -0.0556 |
| RBM10 (RNA binding motif protein 10) | SID134313901 | -1.61 | 0.808 | 0.0471 |
| MAP3K4 (mitogen-activated protein kinase kinase kinase 4) | SID152151893 | 0.894 | 0.999 | -0.0544 |
| PAK5 (p21 (RAC1) activated kinase 5) | SID56478749 | -0.783 | 0.871 | 0.0155 |
| DGUOK (deoxyguanosine kinase) | SID152155858 | -0.774 | 0.872 | 0.0835 |
| PDK3 (pyruvate dehydrogenase kinase 3) | SID152151041 | -0.451 | 0.897 | -0.0261 |
| TEX14 (testis expressed 14, intercellular bridge forming factor) | SID152148327 | 0.901 | 1 | -0.0175 |
| ITPKA (inositol-trisphosphate 3-kinase A) | SID152154114 | 0.629 | 0.979 | 0.0257 |
| ERN1 (endoplasmic reticulum to nucleus signaling 1) | SID135620914 | -0.227 | 0.914 | -0.0131 |
| VRK1 (VRK serine/threonine kinase 1) | SID152147475 | -0.0323 | 0.929 | -0.055 |
| CKMT1B (creatine kinase, mitochondrial 1B) | SID135621236 | 0.0198 | 0.933 | -0.0574 |
| GRK4 (G protein-coupled receptor kinase 4) | SID152155634 | -0.13 | 0.921 | -0.00244 |
| EPHA8 (EPH receptor A8) | SID135620615 | -0.707 | 0.877 | -0.0387 |
| RYK (receptor like tyrosine kinase) | SID152147158 | 0.361 | 0.959 | -0.117 |
| MARK2 (microtubule affinity regulating kinase 2) | SID152148068 | 0.316 | 0.955 | -0.0557 |
| PIK3R3 (phosphoinositide-3-kinase regulatory subunit 3) | SID56479284 | -0.0247 | 0.929 | -0.0628 |
| RPS6KB1 (ribosomal protein S6 kinase B1) | SID152147142 | -0.632 | 0.883 | 0.0286 |
| CAMKV (CaM kinase like vesicle associated) | SID135620973 | -0.705 | 0.877 | -0.214 |
| EPHA10 (EPH receptor A10) | SID135620971 | -0.184 | 0.917 | 0.0899 |

2 entries from above, arranged by “viability z-score, no drug”, highest first:
| Target gene | PubChem SID | viability z-score, no drug | viability vs control, no drug (fraction of control) | synergy with trametinib |
| --- | --- | --- | --- | --- |
| MST1R (macrophage stimulating 1 receptor) | SID152152898 | 0.388 | 0.961 | 0.0145 |
| PRKAG3 (protein kinase AMP-activated non-catalytic subunit gamma 3) | SID56479232 | -2.29 | 0.756 | -0.0416 |
